Experimental data published in article PMC5414174, “DNA replication licensing factor Cdc6 and Plk4 kinase antagonistically regulate centrosome duplication via Sas-6” (Nature Communications, 2017).
Results are given in words; binding and its absence hold for the method and conditions named. Binding seen in cells or lysates may run through a third protein. Some entries that bind do so weakly or less than the wild type. Sequences can lack the tags named with a protein.

Assays:
[1] = target: T1, GFP-tagged Plk4 WT (human) (UniProt O00444); experiment: condition: only cells synchronized to the G1/S transition or G2 phase; co-IP; HEK293 cells co-transfected with GFP-Plk4 and Myc-Cdc6, synchronized to the G1/S transition or G2 phase; IP with GFP antibody
T1 sequence: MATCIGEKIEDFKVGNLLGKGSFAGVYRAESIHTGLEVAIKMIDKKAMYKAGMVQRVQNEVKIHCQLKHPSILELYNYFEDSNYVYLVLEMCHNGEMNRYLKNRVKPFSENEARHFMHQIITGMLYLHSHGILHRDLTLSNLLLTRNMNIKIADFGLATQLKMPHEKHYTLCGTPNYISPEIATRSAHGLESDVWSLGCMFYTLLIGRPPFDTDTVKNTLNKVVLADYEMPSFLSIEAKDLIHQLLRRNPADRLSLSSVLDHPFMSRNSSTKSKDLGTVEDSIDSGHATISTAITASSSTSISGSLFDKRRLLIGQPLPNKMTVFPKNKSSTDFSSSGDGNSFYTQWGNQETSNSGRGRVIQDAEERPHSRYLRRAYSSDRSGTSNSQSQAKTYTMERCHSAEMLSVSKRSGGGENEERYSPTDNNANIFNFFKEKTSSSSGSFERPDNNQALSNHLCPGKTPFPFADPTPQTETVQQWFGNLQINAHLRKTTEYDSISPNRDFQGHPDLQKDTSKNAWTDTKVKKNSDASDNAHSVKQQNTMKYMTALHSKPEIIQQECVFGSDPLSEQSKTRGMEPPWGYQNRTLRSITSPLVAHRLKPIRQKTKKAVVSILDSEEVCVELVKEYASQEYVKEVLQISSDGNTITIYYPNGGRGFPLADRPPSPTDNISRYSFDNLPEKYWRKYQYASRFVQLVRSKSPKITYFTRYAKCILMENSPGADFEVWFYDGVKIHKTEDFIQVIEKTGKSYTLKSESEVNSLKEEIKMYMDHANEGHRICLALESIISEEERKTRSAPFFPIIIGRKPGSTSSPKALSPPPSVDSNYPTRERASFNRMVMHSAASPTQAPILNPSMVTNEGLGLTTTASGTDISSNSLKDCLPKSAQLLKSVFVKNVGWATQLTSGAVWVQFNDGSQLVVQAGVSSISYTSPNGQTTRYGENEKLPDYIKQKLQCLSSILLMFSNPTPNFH

[2] = target: T2, GFP-tagged Plk4 K41M (human) (UniProt O00444); experiment: co-IP; co-transfected HEK293 cells, total cell extract, IP with GFP antibody on protein A Sepharose, 20 mM Tris, 125 mM NaCl, 0.5% NP-40, pH 7.5, 2 h at 4 °C; western blot with Myc and GFP antibodies; in Fig. 4d cells released into S phase
T2 sequence: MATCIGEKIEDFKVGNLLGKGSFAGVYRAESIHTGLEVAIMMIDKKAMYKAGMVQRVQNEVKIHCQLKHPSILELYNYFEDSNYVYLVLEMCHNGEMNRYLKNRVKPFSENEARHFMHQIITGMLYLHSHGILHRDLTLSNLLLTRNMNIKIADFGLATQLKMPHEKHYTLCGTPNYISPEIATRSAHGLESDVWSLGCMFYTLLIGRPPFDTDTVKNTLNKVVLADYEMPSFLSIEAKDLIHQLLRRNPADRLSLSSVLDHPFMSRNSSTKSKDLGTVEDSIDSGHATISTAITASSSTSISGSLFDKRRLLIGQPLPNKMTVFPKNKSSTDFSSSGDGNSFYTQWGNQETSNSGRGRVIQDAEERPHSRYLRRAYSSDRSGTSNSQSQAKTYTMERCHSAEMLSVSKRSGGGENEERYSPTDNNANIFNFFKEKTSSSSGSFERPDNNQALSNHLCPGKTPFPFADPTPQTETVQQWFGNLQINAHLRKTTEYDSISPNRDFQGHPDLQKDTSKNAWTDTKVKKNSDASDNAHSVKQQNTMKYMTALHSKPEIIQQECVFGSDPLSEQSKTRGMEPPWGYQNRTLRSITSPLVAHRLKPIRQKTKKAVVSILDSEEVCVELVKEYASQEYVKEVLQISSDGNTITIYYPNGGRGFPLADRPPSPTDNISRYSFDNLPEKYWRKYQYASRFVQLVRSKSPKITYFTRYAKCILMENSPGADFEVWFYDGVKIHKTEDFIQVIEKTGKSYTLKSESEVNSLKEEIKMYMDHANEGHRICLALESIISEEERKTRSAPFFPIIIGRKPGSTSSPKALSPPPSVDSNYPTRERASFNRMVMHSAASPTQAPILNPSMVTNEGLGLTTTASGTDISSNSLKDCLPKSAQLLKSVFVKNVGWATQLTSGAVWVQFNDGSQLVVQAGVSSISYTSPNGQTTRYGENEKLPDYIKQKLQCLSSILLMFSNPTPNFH

[3] = target: T1, GFP-tagged Plk4 WT (human); experiment: as above
GFP-tagged Sas-6 (human) = target: T3, GFP-tagged Sas-6 (human) (UniProt Q6UVJ0); experiment: as above
T3 sequence: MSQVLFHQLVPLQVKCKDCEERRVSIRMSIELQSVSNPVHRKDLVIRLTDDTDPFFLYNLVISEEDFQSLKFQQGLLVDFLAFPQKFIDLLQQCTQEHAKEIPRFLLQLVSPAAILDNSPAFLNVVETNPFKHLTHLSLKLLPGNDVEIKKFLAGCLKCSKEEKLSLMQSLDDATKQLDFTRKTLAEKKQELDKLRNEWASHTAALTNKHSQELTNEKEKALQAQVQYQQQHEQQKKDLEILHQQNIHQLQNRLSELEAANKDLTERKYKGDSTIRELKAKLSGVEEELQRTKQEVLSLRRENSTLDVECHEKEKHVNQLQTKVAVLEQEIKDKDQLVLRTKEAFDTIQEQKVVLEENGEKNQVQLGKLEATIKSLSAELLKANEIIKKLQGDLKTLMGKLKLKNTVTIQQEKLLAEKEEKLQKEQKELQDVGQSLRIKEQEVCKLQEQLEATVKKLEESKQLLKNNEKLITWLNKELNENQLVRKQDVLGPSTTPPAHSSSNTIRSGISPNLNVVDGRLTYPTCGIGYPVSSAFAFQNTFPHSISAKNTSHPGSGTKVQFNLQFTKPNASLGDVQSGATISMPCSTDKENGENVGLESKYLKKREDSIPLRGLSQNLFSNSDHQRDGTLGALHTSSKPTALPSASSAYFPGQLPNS

- binding [1]: no binding
- binding [2]: no binding
- binding [3]: binds
- binding (GFP-tagged Sas-6 (human)): binds
B1: Myc-tagged Cdc6 (protein, UniProt Q99741 1-560)
chain: MPQTRSQAQATISFPKRKLSRALNKAKNSSDAKLEPTNVQTVTCSPRVKALPLSPRKRLGDDNLCNTPHLPPCSPPKQGKKENGPPHSHTLKGRRLVFDNQLTIKSPSKRELAKVHQNKILSSVRKSQEITTNSEQRCPLKKESACVRLFKQEGTCYQQAKLVLNTAVPDRLPAREREMDVIRNFLREHICGKKAGSLYLSGAPGTGKTACLSRILQDLKKELKGFKTIMLNCMSLRTAQAVFPAIAQEICQEEVSRPAGKDMMRKLEKHMTAEKGPMIVLVLDEMDQLDSKGQDVLYTLFEWPWLSNSHLVLIGIANTLDLTDRILPRLQAREKCKPQLLNFPPYTRNQIVTILQDRLNQVSRDQVLDNAAVQFCARKVSAVSGDVRKALDVCRRAIEIVESDVKSQTILKPLSECKSPSEPLIPKRVGLIHISQVISEVDGNRMTLSQEGAQDSFPLQQKILVCSLMLLIRQLKIKEVTLGKLYEAYSKVCRKQQVAAVDQSECLSLSGLLEARGILGLKRNKETRLTKVFFKIEEKEIEHALKDKALIGNILATGLP
